The target of test [1] is hnRNPK (human (endogenous in HCT116 and FHC)) (UniProt P61978). The test is described as follows: co-IP; FHC (normal colonic epithelial) nucleoprotein extracts treated with RNase; precipitated with antibody to hnRNPK or IgG, protein-A/G Sepharose beads, 4°C; partners detected by western blot. A general note: In western blotting, separated proteins are transferred to a membrane and probed.

Test [2] shares this target. The test is described as follows: co-IP; HCT116 nucleoprotein extracts treated with RNase; precipitated with antibody to hnRNPK (or to hnRNPU) or IgG, protein-A/G Sepharose beads, 4°C; partners detected by western blot.
Test [3] concerns the target hnRNPU (human (endogenous in HCT116 and FHC)), Q00839. Described as above. The following applies: remark: other sources report otherwise.

Results on 2 molecules are retold here after publication PMC9301189.

Results are given in words; binding and its absence hold for the method and conditions named. Binding seen in cells or lysates may run through a third protein. Some results given as binding are weak or reduced against the parent protein; the word gives no strength.

B1: hnRNPR (protein, UniProt O43390 1-633)
chain: MANQVNGNAVQLKEEEEPMDTSSVTHTEHYKTLIEAGLPQKVAERLDEIFQTGLVAYVDLDERAIDALREFNEEGALSVLQQFKESDLSHVQNKSAFLCGVMKTYRQREKQGSKVQESTKGPDEAKIKALLERTGYTLDVTTGQRKYGGPPPDSVYSGVQPGIGTEVFVGKIPRDLYEDELVPLFEKAGPIWDLRLMMDPLSGQNRGYAFITFCGKEAAQEAVKLCDSYEIRPGKHLGVCISVANNRLFVGSIPKNKTKENILEEFSKVTEGLVDVILYHQPDDKKKNRGFCFLEYEDHKSAAQARRRLMSGKVKVWGNVVTVEWADPVEEPDPEVMAKVKVLFVRNLATTVTEEILEKSFSEFGKLERVKKLKDYAFVHFEDRGAAVKAMDEMNGKEIEGEEIEIVLAKPPDKKRKERQAARQASRSTAYEDYYYHPPPRMPPPIRGRGRGGGRGGYGYPPDYYGYEDYYDDYYGYDYHDYRGGYEDPYYGYDDGYAVRGRGGGRGGRGAPPPPRGRGAPPPRGRAGYSQRGAPLGPPRGSRGGRGGPAQQQRGRGSRGSRGNRGGNVGGKRKADGYNQPDSKRRQTNNQQNWGSQPIAQQPLQQGGDYSGNYGYNNDNQEFYQDTYGQQWK
For the molecule B1, the binding entry in test [1] and in test [2] was “binds” throughout.

B2: hnRNPR, O43390 1-633 (protein)
chain: B1 chain
For B2, the binding entry in test [3] is “binds”.
